Reference: article PMC5974087
No constants are given. Whether binding was seen depends on the method and setting. Binding seen in cells or lysates may run through a third protein. Some entries that bind do so weakly or less than the wild type. Sequences can lack the tags named with a protein. Blank lines part the entries; values can stand above or below the binder they belong to.

Protein sequences, listed by entry. Tags and fused reporters are not part of them.
UniProt O75334: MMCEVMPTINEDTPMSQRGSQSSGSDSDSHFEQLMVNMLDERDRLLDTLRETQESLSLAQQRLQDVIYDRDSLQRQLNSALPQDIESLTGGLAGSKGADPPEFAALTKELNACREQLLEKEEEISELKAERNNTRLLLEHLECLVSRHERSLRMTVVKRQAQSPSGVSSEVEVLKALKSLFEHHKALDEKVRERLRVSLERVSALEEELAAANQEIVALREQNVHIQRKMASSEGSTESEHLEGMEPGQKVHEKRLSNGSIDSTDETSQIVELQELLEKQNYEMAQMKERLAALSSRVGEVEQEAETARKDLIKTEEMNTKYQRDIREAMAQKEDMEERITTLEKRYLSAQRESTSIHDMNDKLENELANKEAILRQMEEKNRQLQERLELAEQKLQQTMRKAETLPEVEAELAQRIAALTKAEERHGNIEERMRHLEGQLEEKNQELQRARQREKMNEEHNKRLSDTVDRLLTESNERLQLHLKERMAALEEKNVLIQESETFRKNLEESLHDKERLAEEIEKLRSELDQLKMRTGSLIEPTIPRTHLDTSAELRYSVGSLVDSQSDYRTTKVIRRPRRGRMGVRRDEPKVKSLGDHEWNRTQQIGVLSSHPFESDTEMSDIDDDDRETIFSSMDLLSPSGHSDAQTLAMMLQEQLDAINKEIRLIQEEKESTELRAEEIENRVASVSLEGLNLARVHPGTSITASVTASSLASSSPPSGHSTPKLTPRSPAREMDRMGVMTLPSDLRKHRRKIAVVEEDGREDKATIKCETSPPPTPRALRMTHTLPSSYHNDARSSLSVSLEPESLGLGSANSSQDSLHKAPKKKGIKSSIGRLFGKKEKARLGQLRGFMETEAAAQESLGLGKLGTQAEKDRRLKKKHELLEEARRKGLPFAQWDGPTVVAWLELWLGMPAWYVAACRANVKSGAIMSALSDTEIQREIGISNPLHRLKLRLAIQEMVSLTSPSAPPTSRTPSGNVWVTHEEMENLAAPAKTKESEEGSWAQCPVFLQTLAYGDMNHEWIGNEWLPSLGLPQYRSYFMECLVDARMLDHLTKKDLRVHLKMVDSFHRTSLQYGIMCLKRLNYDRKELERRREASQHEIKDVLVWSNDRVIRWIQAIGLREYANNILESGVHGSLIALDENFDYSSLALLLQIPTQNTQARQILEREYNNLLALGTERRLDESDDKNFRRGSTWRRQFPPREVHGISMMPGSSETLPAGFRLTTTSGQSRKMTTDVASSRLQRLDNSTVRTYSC

Key:
[1] = molecular target: T1, DNAAF2, LUMIER fusion (human) (UniProt Q9NVR5); test: co-IP; LUMIER: RL fusion (prey) and 3xFLAG-FFL fusion (bait) transiently expressed in HEK293, anti-FLAG coated wells, HNTG buffer, 3 h at 4 °C; co-IP efficiency from luciferase activities
T1 sequence: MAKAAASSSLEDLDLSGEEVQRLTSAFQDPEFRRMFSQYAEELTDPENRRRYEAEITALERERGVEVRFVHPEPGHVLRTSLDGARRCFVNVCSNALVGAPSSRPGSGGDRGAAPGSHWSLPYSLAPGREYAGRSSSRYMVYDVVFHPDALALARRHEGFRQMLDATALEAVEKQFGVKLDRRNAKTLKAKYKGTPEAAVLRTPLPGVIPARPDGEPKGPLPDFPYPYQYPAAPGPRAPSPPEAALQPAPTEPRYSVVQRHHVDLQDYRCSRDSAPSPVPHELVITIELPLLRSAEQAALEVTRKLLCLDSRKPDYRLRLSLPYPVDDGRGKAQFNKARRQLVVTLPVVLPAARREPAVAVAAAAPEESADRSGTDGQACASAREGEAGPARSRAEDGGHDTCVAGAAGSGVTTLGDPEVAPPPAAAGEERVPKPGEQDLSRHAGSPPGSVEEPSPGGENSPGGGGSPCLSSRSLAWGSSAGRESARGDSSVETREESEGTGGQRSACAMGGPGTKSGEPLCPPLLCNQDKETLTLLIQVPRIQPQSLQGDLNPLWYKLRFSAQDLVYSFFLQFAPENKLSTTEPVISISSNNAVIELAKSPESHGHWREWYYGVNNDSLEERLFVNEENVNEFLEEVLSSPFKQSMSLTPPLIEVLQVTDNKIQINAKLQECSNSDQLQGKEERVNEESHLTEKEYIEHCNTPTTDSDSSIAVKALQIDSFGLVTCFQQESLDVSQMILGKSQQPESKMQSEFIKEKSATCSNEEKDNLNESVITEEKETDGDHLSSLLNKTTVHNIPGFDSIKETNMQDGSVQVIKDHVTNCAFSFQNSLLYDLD

[2] = molecular target: T2, PIH1D2, LUMIER fusion (human) (UniProt Q8WWB5); test: as above
T2 sequence: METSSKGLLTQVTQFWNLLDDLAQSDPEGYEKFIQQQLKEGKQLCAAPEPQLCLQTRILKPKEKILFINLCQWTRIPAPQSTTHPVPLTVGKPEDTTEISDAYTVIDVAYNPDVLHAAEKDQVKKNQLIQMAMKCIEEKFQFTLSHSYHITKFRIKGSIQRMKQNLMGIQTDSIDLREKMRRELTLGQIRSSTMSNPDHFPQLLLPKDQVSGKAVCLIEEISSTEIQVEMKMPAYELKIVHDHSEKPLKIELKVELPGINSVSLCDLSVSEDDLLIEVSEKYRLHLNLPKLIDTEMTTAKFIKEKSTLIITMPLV

[3] = molecular target: FLAG-FFL-liprin-α2 (human) (UniProt O75334); test: co-IP; LUMIER in HeLa and HeLa-PIH1D2 cells: FLAG-FFL-liprin-α2 bait, RL-tagged partners as prey
[4] = molecular target: T3, SPAG1, LUMIER fusion (human) (UniProt Q07617); test: co-IP; LUMIER: RL fusion (prey) and 3xFLAG-FFL fusion (bait) transiently expressed in HEK293, anti-FLAG coated wells, HNTG buffer, 3 h at 4 °C; co-IP efficiency from luciferase activities
T3 sequence: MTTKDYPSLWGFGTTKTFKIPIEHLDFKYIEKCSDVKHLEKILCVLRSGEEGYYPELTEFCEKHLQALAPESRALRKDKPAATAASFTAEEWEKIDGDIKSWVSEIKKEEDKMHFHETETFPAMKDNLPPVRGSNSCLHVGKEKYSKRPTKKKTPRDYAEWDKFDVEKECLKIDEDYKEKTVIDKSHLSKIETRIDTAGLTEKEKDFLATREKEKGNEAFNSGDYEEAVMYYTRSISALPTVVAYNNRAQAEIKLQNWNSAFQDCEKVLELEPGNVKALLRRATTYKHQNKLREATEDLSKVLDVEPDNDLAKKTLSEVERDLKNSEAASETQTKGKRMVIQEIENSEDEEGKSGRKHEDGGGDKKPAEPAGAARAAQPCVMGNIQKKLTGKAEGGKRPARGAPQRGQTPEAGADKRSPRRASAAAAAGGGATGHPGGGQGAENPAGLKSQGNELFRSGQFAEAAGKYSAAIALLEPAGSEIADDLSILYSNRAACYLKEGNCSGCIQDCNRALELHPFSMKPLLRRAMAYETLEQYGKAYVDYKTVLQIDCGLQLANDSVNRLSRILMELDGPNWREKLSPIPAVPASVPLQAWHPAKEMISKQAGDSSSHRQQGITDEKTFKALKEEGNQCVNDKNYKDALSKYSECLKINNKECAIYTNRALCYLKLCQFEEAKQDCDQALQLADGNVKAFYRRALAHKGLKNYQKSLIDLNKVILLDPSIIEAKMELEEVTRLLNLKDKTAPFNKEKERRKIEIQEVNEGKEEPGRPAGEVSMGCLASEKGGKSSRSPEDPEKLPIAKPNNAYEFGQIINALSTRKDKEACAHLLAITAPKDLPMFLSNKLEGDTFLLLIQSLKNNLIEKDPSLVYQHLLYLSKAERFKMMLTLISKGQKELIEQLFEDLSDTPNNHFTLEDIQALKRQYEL

- binding [1]: binds
B1: DYX1C1-iso-a, LUMIER fusion (protein, UniProt Q8WXU2 1-420)
chain: MPLQVSDYSWQQTKTAVFLSLPLKGVCVRDTDVFCTENYLKVNFPPFLFEAFLYAPIDDESSKAKIGNDTIVFTLYKKEAAMWETLSVTGVDKEMMQRIREKSILQAQERAKEATEAKAAAKREDQKYALSVMMKIEEEERKKIEDMKENERIKATKALEAWKEYQRKAEEQKKIQREEKLCQKEKQIKEERKKIKYKSLTRNLASRNLAPKGRNSENIFTEKLKEDSIPAPRSVGSIKINFTPRVFPTALRESQVAEEEEWLHKQAEARRAMNTDIAELCDLKEEEKNPEWLKDKGNKLFATENYLAAINAYNLAIRLNNKMPLLYLNRAACHLKLKNLHKAIEDSSKALELLMPPVTDNANARMKAHVRRGTAFCQLELYVEGLQDYEAALKIDPSNKIVQIDAEKIRNVIQGTELKS

- binding [2]: binds
B2: SPAG1, LUMIER fusion (protein, UniProt Q07617 1-926)
chain: T3 sequence

- binding [3]: binds
- binding [4]: binds
B3: liprin-β2 (PPFIBP2), LUMIER fusion (protein, UniProt Q8ND30 1-876)
chain: MASDASHALEAALEQMDGIIAGTKTGADLSDGTCEPGLASPASYMNPFPVLHLIEDLRLALEMLELPQERAALLSQIPGPTAAYIKEWFEESLSQVNHHSAASNETYQERLARLEGDKESLILQVSVLTDQVEAQGEKIRDLEVCLEGHQVKLNAAEEMLQQELLSRTSLETQKLDLMTEVSELKLKLVGMEKEQREQEEKQRKAEELLQELRHLKIKVEELENERNQYEWKLKATKAEVAQLQEQVALKDAEIERLHSQLSRTAALHSESHTERDQEIQRLKMGMETLLLANEDKDRRIEELTGLLNQYRKVKEIVMVTQGPSERTLSINEEEPEGGFSKWNATNKDPEELFKQEMPPRCSSPTVGPPPLPQKSLETRAQKKLSCSLEDLRSESVDKCMDGNQPFPVLEPKDSPFLAEHKYPTLPGKLSGATPNGEAAKSPPTICQPDATGSSLLRLRDTESGWDDTAVVNDLSSTSSGTESGPQSPLTPDGKRNPKGIKKFWGKIRRTQSGNFYTDTLGMAEFRRGGLRATAGPRLSRTRDSKGQKSDANAPFAQWSTERVCAWLEDFGLAQYVIFARQWVSSGHTLLTATPQDMEKELGIKHPLHRKKLVLAVKAINTKQEEKSALLDHIWVTRWLDDIGLPQYKDQFHESRVDRRMLQYLTVNDLLFLKVTSQLHHLSIKCAIHVLHVNKFNPHCLHRRPADESNLSPSEVVQWSNHRVMEWLRSVDLAEYAPNLRGSGVHGGLIILEPRFTGDTLAMLLNIPPQKTLLRRHLTTKFNALIGPEAEQEKREKMASPAYTPLTTTAKVRPRKLGFSHFGNIRKKKFDESTDYICPMEPSDGVSDSHRVYSGYRGLSPLDAPELDGLDQVGQIS
